# Assay results taken from the supplement of paper PMC10849652.
# The chains behind the UniProt entries cited, without tags or fusion partners. Where a name states a change or a piece, a line headed by the entry shows the natural chain unless it says otherwise.
# UniProt O60784, whole entry, looked up: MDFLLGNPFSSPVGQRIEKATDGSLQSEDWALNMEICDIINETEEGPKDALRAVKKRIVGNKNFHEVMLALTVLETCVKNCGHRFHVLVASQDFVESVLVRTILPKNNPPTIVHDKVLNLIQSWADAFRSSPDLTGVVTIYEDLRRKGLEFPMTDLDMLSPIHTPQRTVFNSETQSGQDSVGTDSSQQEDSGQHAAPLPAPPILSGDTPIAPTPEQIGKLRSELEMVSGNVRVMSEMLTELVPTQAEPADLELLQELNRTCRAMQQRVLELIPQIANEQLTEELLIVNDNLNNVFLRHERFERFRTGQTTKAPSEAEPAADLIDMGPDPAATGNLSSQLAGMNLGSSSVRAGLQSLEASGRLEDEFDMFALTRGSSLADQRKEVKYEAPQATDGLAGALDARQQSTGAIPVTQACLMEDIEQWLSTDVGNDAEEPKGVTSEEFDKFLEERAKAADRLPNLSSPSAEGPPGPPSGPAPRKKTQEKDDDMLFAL
# UniProt Q9C035: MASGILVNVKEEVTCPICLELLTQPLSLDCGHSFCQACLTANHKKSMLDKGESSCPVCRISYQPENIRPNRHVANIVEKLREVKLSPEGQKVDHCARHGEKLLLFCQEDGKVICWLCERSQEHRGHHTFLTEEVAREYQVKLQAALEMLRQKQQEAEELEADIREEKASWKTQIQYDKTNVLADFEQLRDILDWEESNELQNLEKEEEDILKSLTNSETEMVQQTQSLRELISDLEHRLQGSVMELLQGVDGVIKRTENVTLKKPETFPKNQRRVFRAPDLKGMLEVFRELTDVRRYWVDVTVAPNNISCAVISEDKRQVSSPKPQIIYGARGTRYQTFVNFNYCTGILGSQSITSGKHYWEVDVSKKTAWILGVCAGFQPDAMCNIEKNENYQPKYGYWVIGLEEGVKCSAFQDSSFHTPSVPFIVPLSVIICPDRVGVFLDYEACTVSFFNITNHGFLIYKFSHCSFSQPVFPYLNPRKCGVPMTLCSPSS
# UniProt O00635: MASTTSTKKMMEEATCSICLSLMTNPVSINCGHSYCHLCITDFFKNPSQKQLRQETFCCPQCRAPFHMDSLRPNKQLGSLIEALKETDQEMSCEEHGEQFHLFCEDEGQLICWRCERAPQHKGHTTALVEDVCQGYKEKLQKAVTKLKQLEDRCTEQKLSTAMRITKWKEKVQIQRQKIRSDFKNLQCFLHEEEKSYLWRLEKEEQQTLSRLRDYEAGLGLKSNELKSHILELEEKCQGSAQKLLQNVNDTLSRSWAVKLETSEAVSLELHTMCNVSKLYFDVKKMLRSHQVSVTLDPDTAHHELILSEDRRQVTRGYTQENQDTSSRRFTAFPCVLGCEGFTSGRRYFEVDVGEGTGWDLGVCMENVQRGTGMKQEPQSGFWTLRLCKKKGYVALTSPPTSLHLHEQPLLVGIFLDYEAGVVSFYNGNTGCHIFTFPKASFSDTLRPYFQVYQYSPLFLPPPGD
# UniProt Q96FX7: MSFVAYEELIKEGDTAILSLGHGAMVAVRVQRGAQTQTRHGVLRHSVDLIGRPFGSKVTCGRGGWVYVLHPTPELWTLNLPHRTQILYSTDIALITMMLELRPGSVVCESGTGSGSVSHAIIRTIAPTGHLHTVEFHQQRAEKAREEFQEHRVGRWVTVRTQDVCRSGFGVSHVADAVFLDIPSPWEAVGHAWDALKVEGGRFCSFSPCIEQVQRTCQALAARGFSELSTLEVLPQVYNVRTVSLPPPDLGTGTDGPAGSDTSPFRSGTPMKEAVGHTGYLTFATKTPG
# UniProt Q9H4I3: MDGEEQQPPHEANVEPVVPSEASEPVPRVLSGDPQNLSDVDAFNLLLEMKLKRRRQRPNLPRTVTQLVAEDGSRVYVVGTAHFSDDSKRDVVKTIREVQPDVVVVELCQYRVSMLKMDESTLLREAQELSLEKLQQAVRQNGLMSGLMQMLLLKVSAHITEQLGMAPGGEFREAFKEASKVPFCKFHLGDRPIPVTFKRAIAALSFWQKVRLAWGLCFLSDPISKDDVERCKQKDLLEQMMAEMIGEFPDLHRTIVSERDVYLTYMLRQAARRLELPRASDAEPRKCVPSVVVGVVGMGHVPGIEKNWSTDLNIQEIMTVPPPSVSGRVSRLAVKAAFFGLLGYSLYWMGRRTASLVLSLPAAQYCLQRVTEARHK
# UniProt Q86W33: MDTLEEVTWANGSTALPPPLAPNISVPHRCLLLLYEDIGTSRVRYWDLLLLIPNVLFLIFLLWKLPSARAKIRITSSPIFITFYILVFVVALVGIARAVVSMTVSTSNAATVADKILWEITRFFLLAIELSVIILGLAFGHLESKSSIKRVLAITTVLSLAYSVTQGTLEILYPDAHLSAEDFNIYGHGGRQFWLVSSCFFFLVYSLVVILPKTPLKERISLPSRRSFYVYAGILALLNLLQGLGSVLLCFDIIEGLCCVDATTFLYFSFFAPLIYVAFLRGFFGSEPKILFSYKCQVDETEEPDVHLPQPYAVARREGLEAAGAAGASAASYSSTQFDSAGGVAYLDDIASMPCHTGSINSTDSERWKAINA
# UniProt P11388: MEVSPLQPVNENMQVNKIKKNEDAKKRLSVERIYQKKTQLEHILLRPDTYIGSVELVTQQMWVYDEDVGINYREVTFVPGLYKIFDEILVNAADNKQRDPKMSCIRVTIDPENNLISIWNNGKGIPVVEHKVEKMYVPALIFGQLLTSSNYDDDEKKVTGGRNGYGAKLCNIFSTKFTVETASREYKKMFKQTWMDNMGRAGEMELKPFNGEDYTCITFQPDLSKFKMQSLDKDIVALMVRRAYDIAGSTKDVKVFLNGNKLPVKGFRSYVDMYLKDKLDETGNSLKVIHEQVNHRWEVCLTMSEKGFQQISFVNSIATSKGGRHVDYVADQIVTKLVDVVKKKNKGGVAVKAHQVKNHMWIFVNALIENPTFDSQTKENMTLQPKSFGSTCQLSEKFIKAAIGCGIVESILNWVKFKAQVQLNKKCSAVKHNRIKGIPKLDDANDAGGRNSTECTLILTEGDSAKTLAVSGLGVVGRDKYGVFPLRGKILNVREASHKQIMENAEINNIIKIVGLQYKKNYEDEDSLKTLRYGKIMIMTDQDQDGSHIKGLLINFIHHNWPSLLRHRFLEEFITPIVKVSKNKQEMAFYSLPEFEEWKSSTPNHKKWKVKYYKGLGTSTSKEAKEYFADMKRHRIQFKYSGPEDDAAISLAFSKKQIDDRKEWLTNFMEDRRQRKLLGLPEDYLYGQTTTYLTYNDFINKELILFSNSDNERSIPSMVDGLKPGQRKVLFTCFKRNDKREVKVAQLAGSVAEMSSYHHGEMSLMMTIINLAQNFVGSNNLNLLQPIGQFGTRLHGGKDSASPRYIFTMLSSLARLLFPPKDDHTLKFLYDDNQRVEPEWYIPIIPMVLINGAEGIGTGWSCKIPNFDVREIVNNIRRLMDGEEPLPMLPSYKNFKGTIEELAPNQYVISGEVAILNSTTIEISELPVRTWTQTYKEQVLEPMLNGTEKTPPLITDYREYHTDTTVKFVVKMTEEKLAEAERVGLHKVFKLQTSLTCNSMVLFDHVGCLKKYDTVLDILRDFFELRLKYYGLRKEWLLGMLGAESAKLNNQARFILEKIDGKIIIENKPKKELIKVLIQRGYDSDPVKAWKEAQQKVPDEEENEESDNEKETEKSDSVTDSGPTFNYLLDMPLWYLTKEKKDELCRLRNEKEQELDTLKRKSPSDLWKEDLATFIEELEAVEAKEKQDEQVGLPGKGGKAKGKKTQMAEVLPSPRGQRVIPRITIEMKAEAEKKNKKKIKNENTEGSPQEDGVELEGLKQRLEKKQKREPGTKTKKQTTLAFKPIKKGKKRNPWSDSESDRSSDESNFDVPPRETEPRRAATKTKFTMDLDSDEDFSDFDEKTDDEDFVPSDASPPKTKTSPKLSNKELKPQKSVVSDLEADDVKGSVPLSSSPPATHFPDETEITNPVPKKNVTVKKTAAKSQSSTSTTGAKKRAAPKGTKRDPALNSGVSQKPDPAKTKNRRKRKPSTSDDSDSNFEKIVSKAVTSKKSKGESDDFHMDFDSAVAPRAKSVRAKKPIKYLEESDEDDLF
# UniProt P14373: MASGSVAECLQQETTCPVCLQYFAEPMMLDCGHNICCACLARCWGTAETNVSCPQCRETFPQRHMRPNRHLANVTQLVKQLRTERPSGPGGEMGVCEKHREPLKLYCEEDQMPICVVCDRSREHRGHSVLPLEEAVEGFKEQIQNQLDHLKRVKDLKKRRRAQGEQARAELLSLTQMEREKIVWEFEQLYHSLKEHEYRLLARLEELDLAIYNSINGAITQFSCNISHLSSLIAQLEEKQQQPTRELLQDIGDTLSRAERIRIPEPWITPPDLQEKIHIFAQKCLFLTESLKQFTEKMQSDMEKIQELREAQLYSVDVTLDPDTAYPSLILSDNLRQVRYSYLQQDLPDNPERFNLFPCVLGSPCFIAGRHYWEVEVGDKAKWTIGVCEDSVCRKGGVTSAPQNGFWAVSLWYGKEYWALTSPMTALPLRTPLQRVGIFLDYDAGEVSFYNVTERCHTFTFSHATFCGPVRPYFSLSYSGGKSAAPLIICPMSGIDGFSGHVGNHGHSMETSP
# UniProt Q14669: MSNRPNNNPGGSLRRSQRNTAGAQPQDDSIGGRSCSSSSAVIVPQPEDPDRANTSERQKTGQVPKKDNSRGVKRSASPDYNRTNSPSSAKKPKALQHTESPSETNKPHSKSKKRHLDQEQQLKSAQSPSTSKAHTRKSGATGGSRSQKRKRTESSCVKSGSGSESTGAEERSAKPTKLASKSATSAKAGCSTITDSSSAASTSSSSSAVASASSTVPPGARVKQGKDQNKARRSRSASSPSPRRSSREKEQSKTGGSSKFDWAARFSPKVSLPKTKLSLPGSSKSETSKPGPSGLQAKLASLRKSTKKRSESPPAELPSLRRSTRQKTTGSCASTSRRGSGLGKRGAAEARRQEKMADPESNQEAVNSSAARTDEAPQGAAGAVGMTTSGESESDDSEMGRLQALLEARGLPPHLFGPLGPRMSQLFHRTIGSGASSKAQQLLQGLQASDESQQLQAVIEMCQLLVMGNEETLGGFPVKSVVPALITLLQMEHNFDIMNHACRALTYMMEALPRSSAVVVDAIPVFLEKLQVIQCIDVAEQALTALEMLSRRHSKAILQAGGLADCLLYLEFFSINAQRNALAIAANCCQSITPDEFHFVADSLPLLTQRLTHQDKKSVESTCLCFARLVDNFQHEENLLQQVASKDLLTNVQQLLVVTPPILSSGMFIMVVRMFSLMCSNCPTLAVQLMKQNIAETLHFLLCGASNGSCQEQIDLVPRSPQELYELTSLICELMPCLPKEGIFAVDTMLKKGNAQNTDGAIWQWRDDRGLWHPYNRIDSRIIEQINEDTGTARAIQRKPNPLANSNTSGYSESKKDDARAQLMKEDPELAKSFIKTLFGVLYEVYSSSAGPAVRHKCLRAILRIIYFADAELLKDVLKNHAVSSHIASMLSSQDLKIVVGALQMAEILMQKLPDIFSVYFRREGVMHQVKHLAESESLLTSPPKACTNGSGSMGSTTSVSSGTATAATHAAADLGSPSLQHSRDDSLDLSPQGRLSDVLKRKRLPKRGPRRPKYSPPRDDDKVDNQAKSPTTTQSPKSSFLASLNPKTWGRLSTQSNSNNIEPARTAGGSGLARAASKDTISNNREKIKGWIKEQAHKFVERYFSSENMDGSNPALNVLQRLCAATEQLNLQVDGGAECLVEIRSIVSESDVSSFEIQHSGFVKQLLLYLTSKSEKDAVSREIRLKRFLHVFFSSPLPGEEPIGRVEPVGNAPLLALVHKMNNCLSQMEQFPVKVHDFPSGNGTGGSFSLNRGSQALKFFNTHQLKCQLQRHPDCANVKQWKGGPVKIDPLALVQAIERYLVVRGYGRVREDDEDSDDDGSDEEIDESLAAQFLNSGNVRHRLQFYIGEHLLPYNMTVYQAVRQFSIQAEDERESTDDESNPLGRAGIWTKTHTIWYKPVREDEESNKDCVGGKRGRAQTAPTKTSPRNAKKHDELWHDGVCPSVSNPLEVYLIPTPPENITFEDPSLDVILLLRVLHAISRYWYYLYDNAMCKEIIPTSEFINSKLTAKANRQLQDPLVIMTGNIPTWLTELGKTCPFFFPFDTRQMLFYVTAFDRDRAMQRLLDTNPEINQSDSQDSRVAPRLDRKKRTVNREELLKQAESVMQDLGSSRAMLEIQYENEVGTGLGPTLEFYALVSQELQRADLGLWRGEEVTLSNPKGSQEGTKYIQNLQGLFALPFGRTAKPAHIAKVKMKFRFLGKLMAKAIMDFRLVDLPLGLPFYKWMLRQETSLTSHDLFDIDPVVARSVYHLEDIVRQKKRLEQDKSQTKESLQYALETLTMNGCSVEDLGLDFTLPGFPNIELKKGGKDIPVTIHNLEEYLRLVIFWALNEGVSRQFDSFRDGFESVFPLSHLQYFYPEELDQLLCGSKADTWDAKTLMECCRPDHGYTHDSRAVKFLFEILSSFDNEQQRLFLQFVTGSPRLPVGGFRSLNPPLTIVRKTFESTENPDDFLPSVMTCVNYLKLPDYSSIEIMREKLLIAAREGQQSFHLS
# The list shows a part of the results. Residues, ends and D or L forms follow the SMILES beside them. *: point of attachment. Cbz = O=C(OCc1ccccc1)*
# Key:
# Test in all cases: log2 fold change, soluble protein after heating vs DMSO (PISA); higher = thermal stabilisation; K562 cells, 10 uM, 30 min; active = over 0.2 and 3.5 SD of the protein, either way, in both replicates (recomputed)
# erlotinib = compound: C#Cc1cccc(Nc2ncnc3cc(OCCOC)c(OCCOC)cc23)c1 [erlotinib]
# Outline: (§1)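 Soluble protein was quantified by TMTpro 16plex LC-MS/MS after channel sums were equalised. It was obtained as the supernatant after 21,000xg for 90 min from pooled aliquots of K562 cells (2×10^6 cells/mL, 10 μM compound, 30 min) heated for 3 min across 48°C-58°C and extracted in PBS with 0.5% NP-40 at 4°C. Thermal stability values are relative to control samples and come from duplicates. They are given as log2 fold changes.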
# [1] = compound: C/C(=N\NC(=O)C1=CC(=CC=C1)S(=O)(=O)N2CCOCC2)/C3=C(C=CC(=C3)Cl)O
# Outline: as §1
# [2] = compound: C1=CC(=CC=C1C2=NC3=C(N2)C=C(C=C3)C(=O)N)OC4=CC=C(C=C4)Cl
# Outline: as §1
# [3] = compound: C1=CC2=C(C=CC(=C2)/C=C\3/C(=O)NC(=NCC4=CC=CS4)S3)N=C1
# Outline: as §1
# [4] = compound: C1=CC2=NC=CN=C2C=C1/C=C/3\C(=O)NC(=O)S3
# Outline: as §1
# [5] = compound: C1=CC=C2C(=C1)C3=NNC4=CC=CC(=C43)C2=O
# Outline: as §1
# [6] = compound: C1CCN(C1)C(=O)NC2=CC=CC(=C2)NC3=NC=C(C(=N3)NCCC4=CN=CN4)Br
# Outline: as §1
# [7] = compound: C1CN(CCC1(CC2=CC=C(C=C2)Cl)N)C3=NC=NC4=C3C=CN4
# Outline: as §1
# ibrutinib = compound: C=CC(=O)N1CCC[C@@H](n2nc(-c3ccc(Oc4ccccc4)cc3)c3c(N)ncnc32)C1 [ibrutinib]
# Outline: as §1
# [8] = compound: CC(=O)c1cnc2ccc(-c3cc(Cl)c(O)c(Cl)c3)nc2c1N[C@H]1CC[C@H](CN(C)C)CC1
# Outline: as §1
# [9] = compound: CC(C)C1=C2N=C(C=C(N2N=C1)NCC3=CC=CC=C3)NCCCCCCN
# Outline: as §1
# [10] = compound: CC1=C(C(CC(=O)N1)C2=CC=C(C=C2)C(F)(F)F)C(=O)NC3=C(C=C4C(=C3)C=NN4)F
# Outline: as §1
# [11] = compound: CC1=C(C2=C(C=C1)C(=O)C3=CC=CC=C3N2CCCN)C
# Outline: as §1
# [12] = compound: C1=CC(=C(C=C1Cl)C2=NC3=NC=CN=C3C(=N2)NC4=CC=NC=C4)F
# Outline: as §1
# [13] = compound: C1=CC=C(C=C1)C2=NC(=C(N2)C3=CC=NC=C3)C4=CC(=C(C=C4)Cl)O
# Outline: as §1
# IRAK-1-4 Inhibitor I = compound: C1COCCN1CCN2C3=CC=CC=C3N=C2NC(=O)C4=CC(=CC=C4)[N+](=O)[O-] [IRAK-1-4 Inhibitor I]
# Outline: as §1
# ralimetinib = compound: CC(C)(C)Cn1c(N)nc2ccc(-c3[nH]c(C(C)(C)C)nc3-c3ccc(F)cc3)nc21 [ralimetinib]
# Outline: as §1
# [14] = compound: CC(C)(O)CC(=O)NCCn1ccc2ncnc(Nc3ccc(Oc4cccc(C(F)(F)F)c4)c(Cl)c3)c21
# Outline: as §1
# [15] = compound: CC(C)C[C@@H](C=O)NC(=O)[C@H](CC(C)C)NC(=O)[C@H](CC(C)C)NC(=O)OCc1ccccc1
# Outline: as §1
# pinometostat = compound: CC(C)N(C[C@H]1O[C@@H](n2cnc3c(N)ncnc32)[C@H](O)[C@@H]1O)[C@H]1C[C@@H](CCc2nc3cc(C(C)(C)C)ccc3[nH]2)C1 [pinometostat]
# Outline: as §1
Target,log2 fold change (erlotinib),log2 fold change [1],log2 fold change [2],log2 fold change [3],log2 fold change [4],log2 fold change [5],log2 fold change [6],log2 fold change [7],log2 fold change (ibrutinib),log2 fold change [8],log2 fold change [9],log2 fold change [10],log2 fold change [11],log2 fold change [12],log2 fold change [13],log2 fold change (IRAK-1-4 Inhibitor I),log2 fold change (ralimetinib),log2 fold change [14],log2 fold change [15],log2 fold change (pinometostat)
TRIM21 (UniProt P19474),inactive: 0.041,inactive: -0.047,inactive: 0.214,inactive: -0.076,inactive: 0.111,inactive: 0.213,inactive: -0.038,inactive: 0.013,inactive: -0.238,inactive: 0.044,inactive: -0.147,inactive: 0.106,inactive: 0.129,,,,,,,
TOM1 isoform 2 (UniProt O60784),inactive: 0.012,inactive: 0.014,inactive: -0.04,inactive: -0.006,inactive: -0.016,inactive: 0.004,inactive: -0.023,inactive: 0.014,inactive: 0.013,inactive: 0.028,inactive: -0.302,,inactive: 0.16,inactive: 0.107,inactive: -0.053,inactive: 0.101,inactive: 0.071,inactive: -0.017,inactive: 0.033,inactive: 0.023
TRIM5 (UniProt Q9C035),inactive: -0.061,inactive: 0.075,inactive: 0.162,inactive: 0.012,,inactive: 0.019,inactive: -0.077,inactive: -0.01,,inactive: 0,inactive: -0.176,,inactive: 0.047,inactive: 0.111,inactive: -0.182,,inactive: 0.094,inactive: -0.045,inactive: 0.391,
TNIK isoform 3 (UniProt Q9UKE5),inactive: -0.013,inactive: -0.031,inactive: 0.001,inactive: -0.017,inactive: 0.014,inactive: -0.06,inactive: -0.137,inactive: 0.03,inactive: -0.012,inactive: -0.058,inactive: -0.008,,inactive: 0.026,,inactive: 0.013,inactive: 0.003,inactive: 0.033,,inactive: 0.114,inactive: -0.008
TRAF7 (UniProt Q6Q0C0),inactive: 0.021,inactive: 0.031,inactive: 0.1,inactive: -0.105,inactive: -0.064,inactive: -0.012,,,inactive: -0.018,inactive: -0.311,inactive: 0.066,,,inactive: 0.054,,inactive: -0.013,,inactive: -0.06,,inactive: -0.156
TRIM38 (UniProt O00635),inactive: 0.126,inactive: -0.068,inactive: 0.027,inactive: 0.108,inactive: -0.072,inactive: -0.143,,,inactive: -0.016,inactive: -0.089,inactive: -0.072,inactive: 0.079,,inactive: -0.053,,inactive: 0.037,,inactive: -0.02,,inactive: 0.037
TRMT61A (UniProt Q96FX7),inactive: -0.03,inactive: -0.062,inactive: 0.087,inactive: -0.059,inactive: -0.07,inactive: -0.046,inactive: 0.054,inactive: 0.054,inactive: 0.14,inactive: -0.002,inactive: -0.099,,inactive: -0.401,active: -0.354,inactive: -0.017,inactive: 0.07,inactive: 0.06,inactive: 0.109,inactive: 0.086,inactive: 0.188
TNNC2 (UniProt P02585),inactive: 0.035,inactive: -0.007,inactive: 0.018,inactive: 0.047,inactive: 0.026,inactive: -0.026,inactive: 0.101,inactive: -0.449,inactive: 0.012,inactive: 0.004,inactive: 0.116,,inactive: 0.114,inactive: -0.004,inactive: -0.058,inactive: 0.042,inactive: -0.068,inactive: 0,inactive: 0.025,inactive: -0.067
TRABD (UniProt Q9H4I3),inactive: -0.057,inactive: -0.023,inactive: 0.016,inactive: 0.032,inactive: -0.049,inactive: 0.074,inactive: -0.077,inactive: 0.071,inactive: 0.007,inactive: -0.032,active: 0.416,,inactive: -0.005,inactive: -0.029,inactive: 0.121,inactive: -0.046,inactive: 0.073,inactive: 0.277,inactive: 0.045,inactive: 0.018
TPRA1 (UniProt Q86W33),inactive: -0.002,inactive: 0.139,inactive: 0.247,inactive: 0.224,,inactive: 0.085,,,,inactive: 0.221,inactive: -0.267,inactive: 0.071,,inactive: -0.091,,,,inactive: 0.009,,
TRMT5 (UniProt Q32P41),inactive: 0.128,inactive: -0.052,inactive: 0.118,inactive: 0.193,inactive: 0.064,inactive: 0.019,inactive: -0.105,inactive: -0.129,inactive: 0.002,inactive: -0.265,inactive: -0.453,inactive: -0.254,inactive: 0.215,inactive: -0.093,,inactive: -0.528,,inactive: -0.118,,inactive: 0.237
TRIM44 (UniProt Q96DX7),inactive: 0.022,inactive: 0.1,inactive: 0.025,inactive: 0.028,inactive: 0.087,inactive: -0.037,inactive: -0.023,inactive: -0.014,inactive: 0.018,inactive: 0.067,inactive: -0.06,,active: -0.327,,inactive: -0.061,inactive: 0.031,inactive: -0.094,,inactive: 0.061,inactive: -0.01
TOP2A isoform 4 (UniProt P11388),inactive: 0.008,inactive: -0.124,inactive: 0.094,inactive: -0.061,inactive: 0.23,inactive: 0.053,inactive: 0.073,inactive: -0.219,inactive: 0.116,inactive: 0.154,inactive: -0.125,,active: -0.968,inactive: -0.429,inactive: 0.077,inactive: -0.145,inactive: 0.324,inactive: 0,inactive: 0.261,inactive: 0.533
TPP1 (UniProt O14773),inactive: 0.013,inactive: 0.009,inactive: -0.015,inactive: -0.007,inactive: 0.024,inactive: -0.014,inactive: -0.012,inactive: -0.017,inactive: -0.01,inactive: -0.006,active: -0.492,,inactive: -0.009,inactive: 0.059,inactive: 0.034,inactive: -0.007,inactive: -0.025,inactive: 0.059,inactive: 0.043,inactive: -0.052
TRIM27 (UniProt P14373),,inactive: 0.284,,inactive: 0.212,,inactive: -0.104,,,,inactive: -0.196,,,,,,,,,,
TPRG1L (UniProt Q5T0D9),inactive: -0.05,,inactive: -0.004,,,,inactive: 0.013,inactive: -0.022,,,inactive: -0.494,inactive: 0.022,inactive: 0.036,inactive: 0.189,inactive: 0.009,,inactive: 0.075,inactive: -0.105,inactive: 0.331,
TOM1 (UniProt O60784),inactive: 0.082,,inactive: -0.037,,inactive: 0.186,,inactive: 0.022,inactive: -0.097,inactive: 0.093,,inactive: -0.22,,inactive: -0.236,inactive: 0.193,,inactive: 0.058,,inactive: -0.087,,inactive: -0.032
TNK2 isoform 3 (UniProt Q07912),inactive: 0.102,,inactive: 0.07,,inactive: -0.105,,,,inactive: 0.108,,inactive: 0.109,,,,,,,,,
TRIP12 isoform 3 (UniProt Q14669),,,,,inactive: 0.083,,inactive: 0.208,inactive: -0.089,inactive: -0.107,,,inactive: 0.044,inactive: 0.063,inactive: -0.054,inactive: -0.089,inactive: -0.12,inactive: -0.134,inactive: 0.171,inactive: 0.027,inactive: -0.151
TREML2 (UniProt Q5T2D2),inactive: 0.026,,inactive: 0.107,,inactive: -0.092,,,,inactive: 0.044,,inactive: -0.127,,,,,inactive: 0.005,,,,inactive: 0.009
TPPP3 (UniProt Q9BW30),,,,,,,,,,,,,,inactive: 0.209,inactive: 0.062,inactive: 0.032,inactive: 0.044,inactive: -0.133,inactive: 0.069,inactive: 0.065
TPK1 (UniProt Q9H3S4),inactive: 0.06,,inactive: 0.083,,inactive: -0.025,,inactive: 0.072,inactive: 0.02,inactive: 0.057,,inactive: -0.068,,inactive: 0.062,inactive: 0.001,inactive: -0.014,inactive: 0.015,inactive: -0.024,inactive: 0.045,inactive: -0.045,inactive: -0.038

# 2 entries picked at random from those above, as already listed:
Target,log2 fold change (erlotinib),log2 fold change [1],log2 fold change [2],log2 fold change [3],log2 fold change [4],log2 fold change [5],log2 fold change [6],log2 fold change [7],log2 fold change (ibrutinib),log2 fold change [8],log2 fold change [9],log2 fold change [10],log2 fold change [11],log2 fold change [12],log2 fold change [13],log2 fold change (IRAK-1-4 Inhibitor I),log2 fold change (ralimetinib),log2 fold change [14],log2 fold change [15],log2 fold change (pinometostat)
TRAF7 (UniProt Q6Q0C0),inactive: 0.021,inactive: 0.031,inactive: 0.1,inactive: -0.105,inactive: -0.064,inactive: -0.012,,,inactive: -0.018,inactive: -0.311,inactive: 0.066,,,inactive: 0.054,,inactive: -0.013,,inactive: -0.06,,inactive: -0.156
TOM1 isoform 2 (UniProt O60784),inactive: 0.012,inactive: 0.014,inactive: -0.04,inactive: -0.006,inactive: -0.016,inactive: 0.004,inactive: -0.023,inactive: 0.014,inactive: 0.013,inactive: 0.028,inactive: -0.302,,inactive: 0.16,inactive: 0.107,inactive: -0.053,inactive: 0.101,inactive: 0.071,inactive: -0.017,inactive: 0.033,inactive: 0.023
